Test results from PubChem BioAssay AID2685 (National Center for Advancing Translational Sciences (NCATS), 2010).
The other results are listed elsewhere or left out. Shown are side measurements of this screen, not its main read-out; they come without a call. Most of these compounds were active or inconclusive in the main read-out, so they are no random draw. Words in brackets tell the shape of the fitted curve; partial curves, single points and poor fits give uncertain potencies.

Test: qHTS Assay for Lipid Storage Modulators in Drosophila S3 Cells;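 as to cell number change: cells counted by Cell Tracker Red CMTPX staining in the red channel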
Settings: BODIPY lipid droplet fluorescence, 18-24 h; for cell number change: measured here: cell count max response, cells fed with added oleic acid
Summary of the method: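 Drosophila S3 cells got compounds at several concentrations plus oleic acid (400 uM solution). Laser-scanning cytometry with 488 nm excitation read lipid droplets at 500-530 nm and cells at 575-640 nm. Percent activity was relative to 20 uM Triacsin C.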

[1] = measured here: cell number channel AC50, cells fed with added oleic acid
[2] = measured here: lipid fluorescence (Fed channel) AC50, cells fed with added oleic acid

COc1ccc(NS(=O)(=O)c2ccc(N3CCOCC3)c(NC(=O)C(C)C)c2)cc1
cell number change: -18.5% | AC50 [1]: 0.651 µM [rising, single point] | AC50 [2]: 0.58 µM [rising, partial curve, poor fit]

C/C(=N\NC(=O)c1ccccc1O)c1cccs1
AC50 [1]: 0.651 µM [rising, single point]

CCCC(C)NC(=O)Cc1ccc(S(=O)(=O)N2CCOCC2)s1 (stereo not given)
cell number change: 19.5% | AC50 [2]: 6.51 µM [falling, single point]

COc1ccc(NC(C)=O)c2nc(C)c(C)nc12
cell number change: -8.48% | AC50 [2]: 2.06 µM [rising, single point]

CN1C(=O)C(C)(C)N(C(=O)c2cccc([N+](=O)[O-])c2)c2ccccc21
cell number change: -2.03% | AC50 [2]: 6.51 µM [falling, single point]

Cc1sc2nc(CSC(C)C(=O)Nc3ccc(Cl)cn3)[nH]c(=O)c2c1C (stereo not given)
cell number change: -3.89%

Cc1cccc(NC(=O)CCS(=O)(=O)c2cc3c(cc2Cl)NC(=O)CO3)c1
cell number change: -21.2% | AC50 [2]: 16.4 µM [rising, single point]

Cc1cscn1
cell number change: 15% | AC50 [2]: 0.103 µM [falling, single point]

O=C(CN(C(=O)C1CSC(=O)C1)c1cccc(F)c1)NC1CCCC1 (stereo not given)
cell number change: -38%

CCN(CC)c1nc(Nc2ccc(Cl)cc2)nc(OCC#N)n1
cell number change: 33.4% | AC50 [1]: 5.8 µM [rising, partial curve, poor fit]

N/C(CCN1CCCCC1)=N/O
cell number change: -9.63% | AC50 [2]: 29.1 µM [falling, single point]

Cc1cc2c(c(=O)o1)C(c1ccc([N+](=O)[O-])o1)C(C#N)=C(N)O2 (stereo not given)
cell number change: 20.7%

CCOc1ccccc1C(=O)NCc1ccc2c(c1)OCO2
cell number change: 12% | AC50 [2]: 0.0259 µM [rising, full curve, poor fit]

COc1ccc(C(=O)Oc2c(C)occc2=O)cc1OC
cell number change: 15.5% | AC50 [2]: 14.6 µM [rising, single point]

O=C(NCc1ccc2c(c1)OCO2)C12CN(Cc3ccccc3)CC1C(c1cccc([N+](=O)[O-])c1)=NO2 (stereo not given)
AC50 [1]: 0.517 µM [rising, single point]

O=C(Nc1cccc(C(F)(F)F)c1)c1ccco1
AC50 [2]: 5.17 µM [falling, partial curve]

Cc1ccc2c(Cl)c(C(=O)Nc3cccnc3)sc2c1
cell number change: -19.6% | AC50 [2]: 18.4 µM [falling, single point]

Cc1ccccc1C(=O)Oc1cc(N)n(S(C)(=O)=O)n1
cell number change: -3.56% | AC50 [1]: 0.092 µM [rising, single point]

COc1ccccc1NC(=O)CSc1nnc(COc2ccc(Cl)cc2)n1Cc1ccco1
cell number change: -2.39% | AC50 [2]: 29.1 µM [rising, single point]

CCN(C(=O)c1cccs1)c1nc(-c2ccc(OC)cc2)cs1
cell number change: 39.5% | AC50 [1]: 4.61 µM [rising, full curve, poor fit]

CCOC(=O)CSC1=C(C#N)C(c2sccc2C)C(C(C)=O)=C(C)N1 (stereo not given)
cell number change: 29.8% | AC50 [2]: 1.46 µM [rising, full curve, poor fit]

COCCCNC(=O)c1ccc(Cn2c(=O)c3ccccc3n(Cc3cc(C)ccc3C)c2=O)cc1
cell number change: -29.5% | AC50 [2]: 29.1 µM [rising, single point]

O=C(NCCCN1CCN(c2cccc(Cl)c2)CC1)C1(S(=O)(=O)c2ccc(Cl)cc2)CC1
cell number change: 31% | AC50 [1]: 23.1 µM [rising, single point]

COc1cc(CN(CCc2c(C)[nH]c3ccc(C)cc23)C(=S)NC(C)(C)C)cc(OC)c1OC
cell number change: -31.5% | AC50 [1]: 29.1 µM [falling, single point] | AC50 [2]: 29.1 µM [falling, single point]

CCCCCCC#Cc1ccc2c(c1)COc1c3ccccc3nn1-2
cell number change: 35.5% | AC50 [2]: 2.91 µM [rising, partial curve]

Cc1ccc(S(=O)(=O)N2CCC(C)CC2)cc1C(=O)NCc1ccccn1
cell number change: 19.8% | AC50 [2]: 29.1 µM [rising, single point]

CCOC(=O)c1c(NC(=O)CN2CCCCC2)sc2c1CCCC2O (stereo not given)
cell number change: -55.1% | AC50 [1]: 23.1 µM [falling, partial curve] | AC50 [2]: 3.26 µM [rising, partial curve]

CCOC(=O)C(=O)Nc1ccccc1C#N
AC50 [2]: 0.92 µM [rising, full curve, poor fit]

CSCC(=O)N1CCc2ccc(NC(=O)c3ccccc3Cl)cc2C1
cell number change: -14.6%

CCCC(=O)Nc1ccc(NC(=O)c2cccc(OC)c2)cn1
cell number change: -13.3%

CN1CCN(c2ccc(NC(=S)NC(=O)c3cccc4c(Br)cccc34)cc2)CC1
cell number change: 14.3% | AC50 [2]: 0.651 µM [rising, single point]

CCCOc1ccc(C(=O)NNC(=O)CCNC(=O)c2ccccc2Cl)cc1OC
cell number change: 37.2% | AC50 [1]: 14.6 µM [rising, single point] | AC50 [2]: 20.6 µM [rising, partial curve]

CC1CCC2C(=O)N(c3cccc(C(=O)Nc4ccc(F)cc4)c3)C(=O)C2C1 (stereo not given)
cell number change: -39.6% | AC50 [1]: 29.1 µM [falling, single point] | AC50 [2]: 29.1 µM [falling, single point]

CCOc1ccc(OCC)c(NC(=O)C2CCCN(S(=O)(=O)c3cccs3)C2)c1 (stereo not given)
AC50 [1]: 4.11 µM [rising, single point] | AC50 [2]: 6.51 µM [rising, single point]

O=C(Nc1ccc(S(=O)(=O)N2CCOCC2)cc1)c1ccc([N+](=O)[O-])cc1Cl
cell number change: -45.1% | AC50 [1]: 29.1 µM [falling, single point]

CCc1ccc(/C=C2/SC(=S)N(CC(=O)Nc3nc4ccccc4s3)C2=O)cc1
cell number change: -1.9% | AC50 [2]: 1.64 µM [rising, partial curve]

O=C(/C=C/c1c(Cl)nc2ccccn12)Nc1ccc(F)cc1
cell number change: -34.8%

COC(=O)c1c(C)oc2ccc(OC(=O)N3CCOCC3)cc12
cell number change: 32% | AC50 [1]: 11.6 µM [rising, single point]

O=C(NCCN1CCOCC1)c1cccc(S(=O)(=O)Nc2cc(Cl)ccc2Cl)c1
cell number change: 14%

Cc1ccc2nc(-c3ccccc3)cc(C(=O)NNC(=O)c3csc(N4CCOCC4)n3)c2c1
cell number change: -33.4% | AC50 [1]: 29.1 µM [falling, single point] | AC50 [2]: 18.4 µM [falling, single point]

CC(C)(C)c1ccc(OCC(=O)NN2Cc3ccccc3C2=N)cc1
AC50 [2]: 0.58 µM [falling, single point]

CC(C)C[C@@H](CO)N(Cc1ccccc1)S(=O)(=O)N(Cc1ccccc1)[C@H](CO)CC(C)C
cell number change: -87.8% | AC50 [1]: 25.9 µM [falling, partial curve, poor fit] | AC50 [2]: 29.1 µM [falling, single point]

Cc1cc(C)n(-c2ccc(N3CCOCC3)nn2)n1
cell number change: -7.94%

CCCCCCCn1ccc(=N)cc1
cell number change: -72.2% | AC50 [1]: 29.1 µM [falling, single point] | AC50 [2]: 29.1 µM [falling, single point]

Cc1ccc2c(c1)N(CC(=O)NC(C)CCc1ccccc1)C(=O)c1cccnc1O2 (stereo not given)
cell number change: -8.07% | AC50 [2]: 0.116 µM [rising, full curve, poor fit]

CCOc1ccc(NC(=O)CSc2nc3ccccc3c(=O)n2CCCC(=O)NCC2CCCO2)cc1 (stereo not given)
cell number change: 18% | AC50 [1]: 0.13 µM [rising, full curve, poor fit]

O=C(CSc1ccccn1)Nc1cccc2ccccc12
cell number change: 1.67% | AC50 [1]: 5.8 µM [falling, single point] | AC50 [2]: 5.8 µM [falling, single point]

Cc1noc(C)c1S(=O)(=O)N(CC(=O)NCc1ccccc1)c1ccc(C(C)C)cc1
cell number change: -56.8% | AC50 [1]: 29.1 µM [falling, single point] | AC50 [2]: 29.1 µM [falling, single point]

Cc1cc(N=Nc2ccc(Cl)cc2)cc(CN2CCCC2)c1O
cell number change: -65.8% | AC50 [1]: 16.4 µM [falling, partial curve] | AC50 [2]: 13 µM [falling, partial curve]

CC(=O)Nc1nc2ccccc2n1Cc1ccccc1
cell number change: 28.7% | AC50 [2]: 0.231 µM [rising, full curve, poor fit]

Cc1ccc(NC(=O)c2cc(S(=O)(=O)N3CCC4(CC3)OCCO4)ccc2F)cc1
AC50 [1]: 3.66 µM [rising, single point] | AC50 [2]: 6.51 µM [rising, single point]

Cc1nn(Cc2ccccc2)c(C)c1NC(=O)CCCn1nc([N+](=O)[O-])cc1C
AC50 [2]: 14.6 µM [rising, partial curve, poor fit]

Cc1cc(/C=C(\C#N)C(=O)NCCc2c[nH]c3ccccc23)c(C)n1C
AC50 [1]: 0.13 µM [rising, full curve, poor fit] | AC50 [2]: 0.103 µM [rising, full curve, poor fit]

COc1ccc(S(N)(=O)=O)cc1C(=O)OCC(=O)N1CC(=O)Nc2ccccc21
cell number change: -1.5%

O=C(N/N=C/c1ccco1)C1CC(=O)N(c2ccccc2)C1 (stereo not given)
cell number change: 6.55% | AC50 [2]: 1.3 µM [falling, full curve]

CC(=O)Nc1c(O)[nH]c2ccccc12
cell number change: -94.2% | AC50 [1]: 23.1 µM [falling, partial curve, poor fit] | AC50 [2]: 29.1 µM [falling, single point]

O=C(Cn1c(-c2cncs2)nc2ccccc21)NCCc1ccccc1
cell number change: -48.6% | AC50 [1]: 20.6 µM [falling, single point] | AC50 [2]: 29.1 µM [falling, single point]

O=C(O)c1cccc(-c2nc3ccccc3[nH]2)c1
cell number change: 66.6% | AC50 [1]: 14.6 µM [rising, partial curve] | AC50 [2]: 0.82 µM [rising, full curve, poor fit]
